# Literature values in patent publication US20120190751A1, “COMPOUNDS FOR TREATMENTS OF INFLAMMATION” (ANA-MAR AB, priority 2009, published 2012).
# Sequences of proteins named here, by UniProt entry; tags and fusion partners are left off.
# UniProt P41595, whole entry: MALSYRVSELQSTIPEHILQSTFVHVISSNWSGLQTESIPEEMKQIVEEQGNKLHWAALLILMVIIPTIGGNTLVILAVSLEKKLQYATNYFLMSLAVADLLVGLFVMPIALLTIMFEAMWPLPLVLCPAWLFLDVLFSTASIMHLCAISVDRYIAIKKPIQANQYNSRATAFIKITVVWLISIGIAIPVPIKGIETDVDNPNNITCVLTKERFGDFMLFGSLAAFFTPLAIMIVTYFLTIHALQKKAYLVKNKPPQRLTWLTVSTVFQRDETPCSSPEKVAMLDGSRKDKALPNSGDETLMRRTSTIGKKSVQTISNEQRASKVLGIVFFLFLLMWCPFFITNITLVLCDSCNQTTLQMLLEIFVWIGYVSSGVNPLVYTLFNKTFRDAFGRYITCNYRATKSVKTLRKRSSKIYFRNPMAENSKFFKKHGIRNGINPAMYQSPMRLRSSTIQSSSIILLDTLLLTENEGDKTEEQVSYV
# For at least one compound, name, drawing or mass did not settle the structure.
# Target: 5HT2B receptor (Homo sapiens, UniProt P41595)
# Conditions: 5HT2B receptor antagonists, Table 1; cited from earlier work
structure (smiles),measurement,value
c1ccc2c(N3CCNCC3)cccc2c1 [1-naphthyl-piperazine],Affinity,8.4-9.0 pKi
